According to PubChem BioAssay AID493014 (National Center for Advancing Translational Sciences (NCATS), 2011):
This is one part of the list. Further columns of the screen follow, without active or inactive calls. The list favours compounds with an active or inconclusive main result. The note in brackets gives the kind of curve behind each potency; many fits are weak.

Assay: qHTS Assay to Find Inhibitors of Chronic Active B-Cell Receptor Signaling
Settings: ABC-DLBCL IkBa-CBG/CBR reporter, luminescence ratio (green luciferase fused to IkBa over red control in TMD8 lymphoma cells), 4 h
Excerpt: NIH Molecular Libraries Probe Production Network [MLPCN] NIH Chemical Genomics Center [NCGC] MLPCN Grant: 1 R03 DA031086-01A1 PI Name: Dr. R. Eric Davis NCGC Assay Overview: Diffuse large B-cell lymphoma (DLBCL) is the most common category of non-Hodgkin lymphoma, with ~20,000 new cases per year in the United States. DLBCL should be regarded as a collection of different neoplasms. Microarray gene expression analysis has defined two principal types of DLBCL, named for their similarity to normal B cell stages or activation states: a germinal center B-cell (GCB) type, and an activated B-cell (ABC) type. In ABC-DLBCL, a constitutive high-level activity of the NF-kappaB family of transcription factors has been observed (1) and NF-kappaB target genes are more highly expressed in ABC primary tumors than in GCB tumors. Functional studies have shown a constitutive high-level activity of the IkappaB (inhibitor of kappa-B) kinase (IKK) complex. […] Further analysis of DLBCL primary tumors for NF-kappaB target gene expression imply that although CARD11 is required for constitutive IKK activity in all ABC-DLBCL lines, mutations in CARD11 may be the root cause of IKK activation only in lines or tumors with such mutations. In other words, CARD11 mutations may explain NF-kappaB activation in only 10% of ABC-DLBCL cases. […] This process has been termed 'chronic active BCR signaling' (CABS). The goal of this screen is to find small-molecule inhibitors of the CABS pathway found in ABC-DLBCL lines using a cell-based assay that measures IkappaBalpa stability, which has already been extensively validated in the OCI-Ly3 line (PubChem AID:445; REF: 4). […] The assay uses green (CBG68) and red (CBR) emitting beetle luciferases [Chroma-GloTM developed by Promega Corp.] where the green luciferase is fused to IkappaBalpha and the red luciferase is present in its native state. Both luciferase genes are stably present in the TMD8 human ABC DLBCL cell line, but their expression is under the control of tetracycline-inducible promoters. Following the addition of doxycycline to induce expression of the luciferases, the green luminescence in control cultures rises only slowly because the CBG fusion partner IkappaBalpha is targeted by IKK activity for rapid degradation. In contrast, green luminescence rises rapidly in the presence of proteasome inhibitors or IKK inhibitors. The rise in red luminescence of CBR is not affected by proteasome or IKK inhibitors, and serves as normalization for cell number and nonspecific effects. Compounds were screened as a concentration-titration series that ranged from 46 uM to 3 nM.
NCGC Assay Protocol Summary: Cells were seeded in 1536-well plates at 5000 cells/4uL in IMDM medium containing 0.5% FBS, w/o phenol red, 1% penicillin/streptomycin. Then, 23 nL of compounds or DMSO were delivered to each well using a pin tool. One uL 20ng/ml doxycycline was then dispensed into white solid 1536-well plates and the plates were incubated at 37C/5% C02 in a cell incubator for 4 hrs. Then 4 uL luminescent substrate mix (in-house prepared: 150 mM Tris-Cl, pH 7.6, 3 mM MgCl2, 1% Triton X-100, 5 mM DTT, 0.2 mM CoA, 0.15 mM ATP, 5 mM D-luciferin, final concentrations) was added to each well. The plate was incubated at r.t. for 10-15 min. The plates were measured on a ViewLux plate reader for green luminescence (540/20 nm filter) and red luminescence (618/8 nm filter). The green and red luminescent signals were corrected for red and green luminescence filter overlap using previously determined filter calibration constants (determined using the procedure outlined in the Promega Technical Manual; REF 4). The %Activity was determined from the ratio of corrected green/red luminescent values. MG132 were used as control. […] Red luminescent %Activity was normalized to the difference between red luminesence in basal cells (0%Activity) and zero luminescence (-100% Activity). […]

[1] = measured here: CBR red luminescence, cell number
[2] = measured here: IkBa-CBG green luminescence

SMILES	AC50 [1]	AC50 [2]
O=C(Oc1ccc(C(=S)N2CCOCC2)cc1)c1cccc(Cl)c1	0.891 µM [rising, full curve, poor fit]	–
CCCCC(O)(c1ccc(F)cc1)C(CN1CCOCC1)c1ccc(Cl)cc1 (stereo not drawn)	15.8 µM [falling, single point]	–
COc1ccc(CC2CC(=O)N(c3ccc(C)cc3)C2=O)cc1 (stereo not drawn)	35.5 µM [rising, single point]	–
CCOC(=O)CCC(=O)N1CCOCCOCCN(C(=O)CCC(=O)OCC)CCOCC1	32.6 µM [falling, single point]	–
O=C(COC(=O)C1(c2ccc(F)cc2)CCCC1)NCc1ccc2c(c1)OCO2	23.1 µM [falling, single point]	–
O=C(CSCc1ccccc1)N1CCN(c2ccccc2)CC1	0.517 µM [rising, partial curve, poor fit]	–
Cn1/c(=N/N=C/c2ccccn2)sc2ccccc21	14.1 µM [falling, single point]	–
COC(=O)c1ccc(-c2ccc(/C=N/NC(=O)Cc3nnc(N)s3)o2)cc1	20 µM [falling, single point]	–
O=C(NCCNC(=O)c1ccc(Cl)cc1Cl)c1ccccn1	0.1 µM [rising, full curve, poor fit]	–
NS(=O)(=O)c1cccc(NC(=O)COC(=O)CCCc2c[nH]c3ccccc23)c1	2.24 µM [rising, full curve, poor fit]	–
O=C(Nc1cccc(Br)c1)c1ccc(OC2CSC2)cc1	17.8 µM [falling, single point]	–
Oc1ccc(Cl)cc1CNn1cnnc1	35.5 µM [falling, single point]	–
Cc1ccc(-c2cc3cccc[n+]3cc2-c2ccc(C)cc2)cc1	20.6 µM [falling, partial curve]	–
CCCCCc1ccc(-c2ccc(C(=O)O)cc2)nc1	0.013 µM [falling, full curve]	–
COc1cccc(NC(=O)c2cc3ccccc3cc2OC)c1	35.5 µM [falling, single point]	–
NNC(=O)c1cccc(COc2cccc(Br)c2)c1	7.08 µM [falling, partial curve, poor fit]	–
COCC(=O)N1CCCN(c2nc3c(C)cccc3cc2C#N)CC1	2.59 µM [rising, full curve]	–
COc1ccc(CCNC(=O)CCCN2C(=O)c3ccccc3C2=O)cc1OC	5.62 µM [rising, full curve, poor fit]	–
Cc1ccccc1NC(=O)NCCc1ccc(Cl)cc1	1.58 µM [falling, partial curve, poor fit]	–
COc1ccccc1C1CC(c2ccc(NS(C)(=O)=O)cc2)=NN1C(=O)c1ccccc1 (stereo not drawn)	1.41 µM [rising, partial curve, poor fit]	–
CCCC(=O)Nc1sc(C)c(C)c1C#N	3.16 µM [rising, partial curve, poor fit]	–

Shown with bars between the fields: two of the compounds above
SMILES | AC50 [1] | AC50 [2]
O=C(Nc1cccc(Br)c1)c1ccc(OC2CSC2)cc1 | 17.8 µM [falling, single point] | –
COc1ccccc1C1CC(c2ccc(NS(C)(=O)=O)cc2)=NN1C(=O)c1ccccc1 (stereo not drawn) | 1.41 µM [rising, partial curve, poor fit] | –

(listing goes on)

SMILES	AC50 [1]	AC50 [2]
Cc1ccc(C)n1-c1ccc(N2CCOCC2)nc1	10.3 µM [rising, partial curve, poor fit]	–
O=[N+]([O-])c1ccc(Nc2nc(N/N=C/c3cccc(F)c3)nc(N3CCCC3)n2)cc1	6.51 µM [falling, partial curve]	–
N#Cc1cccc(S(=O)(=O)NCC(=O)NCc2ccc3c(c2)OCO3)c1	4.61 µM [rising, partial curve]	–
COc1cc2nc3c4ccccc4n(CC#N)c3nc2cc1OC	1.12 µM [rising, full curve]	–
N/C(=N\OC(=O)CC1CCCCC1)c1cccc([N+](=O)[O-])c1	8.2 µM [rising, partial curve]	–
CNc1nc(-c2ccccc2)[n+](-c2ccc(C)cc2)s1	7.31 µM [falling, partial curve]	–
CCCCOC(=O)c1ccc(NC(=O)CSC2=Nc3ccccc3C3CC=NN23)cc1 (stereo not drawn)	32.6 µM [falling, partial curve, poor fit]	–
Cn1c(=O)c2c(nc(N3CCCCCC3)n2CC(=O)c2ccc(Br)cc2)n(C)c1=O	29.1 µM [rising, single point]	–
Cc1noc(NS(=O)(=O)c2ccc(NC(=O)CSc3nc4c(cc3C#N)CCCC4)cc2)c1C	–	11.2 µM [rising, partial curve, poor fit]
COc1ccc(C(=O)COC(=O)/C=C/c2ccccc2[N+](=O)[O-])cc1	23.1 µM [rising, single point]	–
O=C(C1CCCN(S(=O)(=O)c2ccccc2[N+](=O)[O-])C1)N1CCN(c2ccccc2)CC1 (stereo not drawn)	1.03 µM [rising, full curve]	–
O=C(CNc1ccccc1Cl)N/N=C1\CCCc2ccccc21	0.794 µM [rising, full curve, poor fit]	–
CC(=O)c1cccc(NC(=O)c2nc(-c3ccccc3)oc2C)c1	35.5 µM [falling, single point]	–
O=C(COc1ccc([N+](=O)[O-])cc1)Nc1nc(-c2ccccn2)cs1	9.2 µM [falling, partial curve]	–
CCOC(=O)c1sc2nc(NC(=O)C(C)(C)C)sc2c1C	6.31 µM [rising, single point]	–
Cc1cc2cc(CNC(=O)c3cccc([N+](=O)[O-])c3)ccc2n1C	4.61 µM [rising, partial curve, poor fit]	–
Cc1cc(F)ccc1S(=O)(=O)N(C(=O)c1ccncc1)c1ccc(OC(=O)c2ccncc2)cc1	7.94 µM [falling, partial curve]	–
CCOc1ccc(N2CC(NC(=O)c3ccc4c(c3)OCO4)CC2=O)cc1 (stereo not drawn)	35.5 µM [falling, single point]	–
CC(C)(C)c1nn(-c2ccccc2)c2[nH]c(=O)c(C=O)cc12	7.94 µM [rising, partial curve, poor fit]	–
Cc1ccc(NC(=O)CN2CCC(Cc3ccccc3)CC2)cc1S(=O)(=O)N(C)C	12.6 µM [falling, single point]	–
O=C(CSc1nnc(C2COc3ccccc3O2)o1)Nc1nccs1 (stereo not drawn)	8.2 µM [rising, partial curve]	29.1 µM [falling, single point]
